Data as given in PubChem BioAssay AID720505 (Drosophila RNAi Screening Center, 2013).
In all, the deposit lists about 20,000 reagents; shown is an unselected part of those that have a named target and a result. Over the whole deposit, about 2,100 (10%) are marked active. 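Raw plate signals without normalisation; calls rest on control-based scores that were not deposited; replicate 2 separates called from uncalled poorly.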 Unmarked entries are inactive. The numbers tell different reagents against one gene apart. Names joined by + are all predicted targets of the reagent. Reagent sequences are not shown. The record does not give: the amount of reagent, the time to read-out.

Purpose: 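Genes needed for store-operated calcium entry in fly cells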 (primary screen)
Cells: Drosophila S2R+ cells
Reagent: long dsRNA against Drosophila genes
Treatment: thapsigargin (2 µM) in calcium-free buffer to empty internal stores, then 2 mM calcium added back
Measured: 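Stores emptied by 2 µM thapsigargin without calcium, then 2 mM calcium re-added; fluo-4 fluorescence followed by FLIPR in 384-well plates, per-well averaged endpoint, raw; two screen passes, some wells retested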
Direction: calcium signal and retest calcium signal: higher = more calcium entry after store depletion
Active means: 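About 1500 genes called as lowering calcium entry, by varying amounts, judged against per-plate control wells with STIM1 as positive and Rho1 as negative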
Meaning of the calls: active = called as lowering calcium entry; inactive = not called

Gene	reagent	calcium signal, replicate 1	calcium signal, replicate 2	retest calcium signal, replicate 1	retest calcium signal, replicate 2
Traf4	1	69.8 (active)	101		
Traf4	2	128	246		
pall	1	108	166		
pinta	1	146	198		
rictor	1	60.2 (active)	128		
lolal	1	145	102		
CG9547	1	109	207		
CG32344	1	165	102		
HIP + HIP-R	1	129	163		
CG14499	1	99.3 (active)	139		
Tmem131	1	122	130		
Sprn	1	48.1 (active)	73.7		
TrpA1	1	109	58.9		
Prx2	1	126	97.4		
ci	1	89.6	150		
Desat1	1	166	112		
ND-15	1	74.8	119		
CG12231	1	74.6 (active)	144		
Ser7	1	113	93.4		
exp	1	87.6	168		
Atac1	1	63.6 (active)	223		
Dhc64C	1	79.5	88.4		
CG15642	1	74.7	125		
Klf15	1	272	136		
CCT5	1	224	194		
CG13085	1	162	87.9		
CG14454	1	74.5	125		
Lrrk	1	203	128	7131	155
Lrrk	2	99.6	138		
Rab23	1	125	188		
CG7059	1	206	183		
kug	1	98.3	144		
CG16721	1	134	105		
pita	1	73.2	85.9		
pita	2	159	83.3		

3 consecutive entries already listed, quoted:
Gene	reagent	calcium signal, replicate 1	calcium signal, replicate 2	retest calcium signal, replicate 1	retest calcium signal, replicate 2
pall	1	108	166		
pinta	1	146	198		
rictor	1	60.2 (active)	128		
